The supplement of paper PMC8256030
Several values for one entry are separate records, joined by “and”; a condition that tells them apart may be missing. Equal entries are not always repeated. Structures can show the parent of a compound that is named as a salt. This is one part of the list. This data set is noisy: repeats of one test often differ as much as different tests do.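 HEK293T cells were given each compound shortly before transfection with a reporter in which red mCherry is followed by the SARS-CoV-2 frameshift element and then GFP in the −1 frame, so GFP appears only after frameshifting.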

Legend:
[1] = system: SARS-CoV-2 -1 PRF reporter mCherry-FSE-GFP(-1); experiment: mCherry (red) intensity as percent of control; higher = higher upstream reporter expression; details: 10 µM; 24 h; HEK293T
[2] = system: SARS-CoV-2 -1 PRF reporter mCherry-FSE-GFP(-1); experiment: percent effect, decrease of GFP/mCherry ratio (-1 PRF reporter) relative to controls; higher = stronger frameshift inhibition; details: 10 µM; 24 h; HEK293T

| Structure (SMILES) | mCherry [1] | percent effect [2] |
| --- | --- | --- |
| CO[C@H]1C[C@H](O[C@H]2[C@H](C)[C@@H](O[C@@H]3O[C@H](C)C[C@H](N(C)C)[C@H]3O)[C@@H](C)C[C@@]3(CO3)C(=O)[C@H](C)[C@@H](O)[C@@H](C)[C@@H](C)OC(=O)[C@@H]2C)O[C@@H](C)[C@@H]1O [oleandomycin] | 110% | -5.57% |
| CO/N=C(\C(=O)N[C@@H]1C(=O)N2C(C(=O)O)=C(C)CS[C@H]12)c1csc(N)n1 [cefetamet] | 107% | -1.69% |
| COc1cc(O)c(C(=O)c2ccccc2)cc1S(=O)(=O)O [sulisobenzone] | 127% | 7.73% |
| CNCC[C@H](Oc1cccc2ccccc12)c1cccs1 | 147% | 2.74% |
| CC(C)NCC(O)COc1ccc(CCOCC2CC2)cc1 (configuration not stated) [betaxolol] | 99.7% | -3.15% |
| O=C(CCCN1CCN2Cc3[nH]c4ccccc4c3CC2C1)c1ccc(F)cc1 (configuration not stated) [biriperone] | 53.8% | 0.574% |
| CCCCCCCCCCCCCCCC(=O)O[C@@H]1[C@@H](O)[C@@H](O)[C@@H]([C@H](NC(=O)[C@@H]2C[C@@H](CCC)CN2C)[C@H](C)Cl)O[C@@H]1SC [Clindamycin palmitate·HCl] | 147% | -5.88% |
| O=C(/C=C/c1ccc2c(c1)OCO2)N1CCCCC1 [ilepcimide] | 87.7% | -4.26% |
| O=C(O)c1cc(=O)c2c(OCC(O)COc3cccc4oc(C(=O)O)cc(=O)c34)cccc2o1 | 95.8% | 2.16% |
| CCN(CCO)CCCC(C)Nc1ccnc2cc(Cl)ccc12 (configuration not stated) | 86.5% | -34.5% |
| COc1ccc(-c2cc(=S)ss2)cc1 [Anethole-trithione] | 105% | 2.49% |
| COc1ccc(C(=C(c2ccccc2)[N+](=O)[O-])c2ccc(OCCN3CCCC3)cc2)cc1 [nitromifene] | 45.7% | -5.85% |
| C#C[C@]1(O)CC[C@H]2[C@@H]3CCC4=CCCC[C@@H]4[C@H]3CC[C@@]21C [lynestrenol] | 73.5% | -3.33% |
| CC(C)[N+]1(C)[C@@H]2CC[C@H]1CC(OC(=O)C(CO)c1ccccc1)C2 (some centres not stated) [Ipratropium·Br] | 104% | -3.76% |
| CC1(C)SCCN(S(=O)(=O)c2ccc(Oc3ccncc3)cc2)[C@H]1C(=O)NO [prinomastat] | 101% | -6.86% |
| Cc1cc(CC(=O)O)c(C)n1-c1ccc(Cl)cc1 [clopirac] | 123% | -0.457% |
| CC(C)[C@H](N)C(=O)OCCOCn1cnc2c(=O)nc(N)[nH]c21 | 153% | 3.94% |
| CCCC(=O)O[C@]1(C(=O)COC(C)=O)CC[C@H]2[C@@H]3C[C@H](F)C4=CC(=O)C=C[C@]4(C)[C@@]3(F)[C@@H](O)C[C@@]21C [difluprednate] | 117% | -3.03% |
| O=C(OOC(=O)c1ccccc1)c1ccccc1 | 101% | -4.79% |
| CC1=C(C(=O)O)N2C(=O)[C@@H](NC(=O)[C@H](N)c3ccccc3)[C@H]2SC1 | 85.5% | -3.12% |
| CCc1nn(CCCN2CCN(c3cccc(Cl)c3)CC2)c(=O)n1CCOc1ccccc1 | 78.7% | -0.989% |
| Cc1cc2cc3c(C)cc(=O)oc3c(C)c2o1 [trioxysalen] | 130% | -8.4% |
| Cc1cc(O)cc(C)c1Cl [chloroxylenol] | 93.6% | 0.397% |
| O=C(O)c1ccccc1Nc1cc(Cl)ccc1C(=O)O [lobenzarit] | 103% | -1.75% |

Exported bar-delimited: part of the list above.
Structure (SMILES) | mCherry [1] | percent effect [2]
CNCC[C@H](Oc1cccc2ccccc12)c1cccs1 | 147% | 2.74%
CC(C)NCC(O)COc1ccc(CCOCC2CC2)cc1 (configuration not stated) [betaxolol] | 99.7% | -3.15%
O=C(CCCN1CCN2Cc3[nH]c4ccccc4c3CC2C1)c1ccc(F)cc1 (configuration not stated) [biriperone] | 53.8% | 0.574%
CCCCCCCCCCCCCCCC(=O)O[C@@H]1[C@@H](O)[C@@H](O)[C@@H]([C@H](NC(=O)[C@@H]2C[C@@H](CCC)CN2C)[C@H](C)Cl)O[C@@H]1SC [Clindamycin palmitate·HCl] | 147% | -5.88%
O=C(/C=C/c1ccc2c(c1)OCO2)N1CCCCC1 [ilepcimide] | 87.7% | -4.26%
O=C(O)c1cc(=O)c2c(OCC(O)COc3cccc4oc(C(=O)O)cc(=O)c34)cccc2o1 | 95.8% | 2.16%
CCN(CCO)CCCC(C)Nc1ccnc2cc(Cl)ccc12 (configuration not stated) | 86.5% | -34.5%
COc1ccc(-c2cc(=S)ss2)cc1 [Anethole-trithione] | 105% | 2.49%
COc1ccc(C(=C(c2ccccc2)[N+](=O)[O-])c2ccc(OCCN3CCCC3)cc2)cc1 [nitromifene] | 45.7% | -5.85%
C#C[C@]1(O)CC[C@H]2[C@@H]3CCC4=CCCC[C@@H]4[C@H]3CC[C@@]21C [lynestrenol] | 73.5% | -3.33%
CC(C)[N+]1(C)[C@@H]2CC[C@H]1CC(OC(=O)C(CO)c1ccccc1)C2 (some centres not stated) [Ipratropium·Br] | 104% | -3.76%
CC1(C)SCCN(S(=O)(=O)c2ccc(Oc3ccncc3)cc2)[C@H]1C(=O)NO [prinomastat] | 101% | -6.86%
Cc1cc(CC(=O)O)c(C)n1-c1ccc(Cl)cc1 [clopirac] | 123% | -0.457%
CC(C)[C@H](N)C(=O)OCCOCn1cnc2c(=O)nc(N)[nH]c21 | 153% | 3.94%
CCCC(=O)O[C@]1(C(=O)COC(C)=O)CC[C@H]2[C@@H]3C[C@H](F)C4=CC(=O)C=C[C@]4(C)[C@@]3(F)[C@@H](O)C[C@@]21C [difluprednate] | 117% | -3.03%
O=C(OOC(=O)c1ccccc1)c1ccccc1 | 101% | -4.79%
CC1=C(C(=O)O)N2C(=O)[C@@H](NC(=O)[C@H](N)c3ccccc3)[C@H]2SC1 | 85.5% | -3.12%
CCc1nn(CCCN2CCN(c3cccc(Cl)c3)CC2)c(=O)n1CCOc1ccccc1 | 78.7% | -0.989%
Cc1cc2cc3c(C)cc(=O)oc3c(C)c2o1 [trioxysalen] | 130% | -8.4%
Cc1cc(O)cc(C)c1Cl [chloroxylenol] | 93.6% | 0.397%
O=C(O)c1ccccc1Nc1cc(Cl)ccc1C(=O)O [lobenzarit] | 103% | -1.75%

Single records, from the list above.
CNCC[C@H](Oc1cccc2ccccc12)c1cccs1 is listed as mCherry [1]: 147%; percent effect [2]: 2.74%
O=C(/C=C/c1ccc2c(c1)OCO2)N1CCCCC1 [ilepcimide] is listed as mCherry [1]: 87.7%; percent effect [2]: -4.26%

(further entries)

| Structure (SMILES) | mCherry [1] | percent effect [2] |
| --- | --- | --- |
| COc1cccc(OC)c1C(=O)N[C@@H]1C(=O)N2[C@@H]1SC(C)(C)[C@@H]2C(=O)O | 106% | -8.06% |
| CCN(CC)C(=O)C1(c2ccccc2)CC1CN (configuration not stated) [milnacipran] | 98.9% | -4.62% |
| CC(C)Oc1ccc2c(=O)c(-c3ccccc3)coc2c1 | 90.6% | -2.56% |
| C#C[C@]1(O)CC[C@H]2[C@@H]3CCc4cc(O)ccc4[C@H]3CC[C@@]21C [ethinylestradiol] | 171% | 1.19% |
| Clc1ccccc1CN1CCc2sccc2C1 [Ticlopidine] | 79% | -2.09% |
| CCN(CC)C(C)CC(=O)Nc1ccccc1 (configuration not stated) [octacaine] | 71.4% | -2.9% |
| Cc1cccc(Nc2ccccc2C(=O)O)c1C [mefenamic acid] | 90.2% and 102% | 0.475% and 5.38% |
| Cn1cnc([N+](=O)[O-])c1Sc1ncnc2[nH]cnc12 [Azathioprine] | 111% and 88.4% | -0.343% and -0.221% |
| CCCCN1CCCC[C@H]1C(=O)Nc1c(C)cccc1C [levobupivacaine] | 96.7% | -1.14% |
| CC1=C(C)C(=O)C(C(CCCCCC(=O)O)c2ccccc2)=C(C)C1=O (configuration not stated) [seratrodast] | 103% | -7.5% |
| CNCCCC1c2ccccc2C=Cc2ccccc21 [protriptyline] | 115% | 2.59% |
| O=c1[nH]cnc2c1ncn2[C@@H]1O[C@H](CO)[C@@H](O)[C@H]1O | 95.4% | 0.252% |
| CC[C@H](C)[C@H](N)C1=N[C@H](C(=O)N[C@@H](CC(C)C)C(=O)N[C@H](CCC(=O)O)C(=O)N[C@H](C(=O)N[C@H]2CCCCNC(=O)[C@H](CC(N)=O)NC(=O)[C@@H](CC(=O)O)NC(=O)[C@H](Cc3cnc[nH]3)NC(=O)[C@@H](Cc3ccccc3)NC(=O)[C@H]([C@@H](C)CC)NC(=O)[C@@H](CCCN)NC2=O)[C@@H](C)CC)CS1 [Bacitracin] | 96.5% | 0.771% |
| CN1CCCN=C1COC(=O)C(O)(c1ccccc1)C1CCCCC1 (configuration not stated) | 99.4% | -0.879% |
| CC(Oc1c(Cl)cccc1Cl)C1=NCCN1 (configuration not stated) [Lofexidine·HCl] | 104% | -4.07% |
| Cn1nnnc1SCC1=C(C(=O)O)N2C(=O)[C@@H](NC(=O)[C@H](O)c3ccccc3)[C@H]2SC1 | 86.9% | -4.7% |
| NC[C@H]1O[C@H](O[C@H]2[C@H](O)[C@@H](O[C@H]3O[C@H](CO)[C@@H](O)[C@H](N)[C@H]3O)[C@H](N)C[C@@H]2N)[C@H](N)[C@@H](O)[C@@H]1O [bekanamycin] | 110% | -5.92% |
| CC1CCN(C(=O)[C@@H](CCn2cccc2C#N)NS(=O)(=O)c2cccc3[nH]ccc23)CC1 | 79.6% | -0.107% |
| O=C([O-])[C@H](O)[C@@H](O)[C@H](O)[C@H](O)CO.[Na+] | 121% | 2.33% |
| CC1OC2(CS1)CN1CCC2CC1 (configuration not stated) [Evoxac] | 115% | -3.37% |
| Cc1oc(=O)oc1CN1CCN(c2cc3c(cc2F)c(=O)c(C(=O)O)c2n3C(C)S2)CC1 (configuration not stated) | 107% | 0.459% |
| CN1CCC(=C2c3ccccc3CCc3sccc32)CC1 | 99.4% | -2.18% |
| C=C1/C(=C\C=C2/CCC[C@]3(C)[C@@H]([C@H](C)/C=C/C=C/C(O)(CC)CC)CC[C@@H]23)C[C@@H](O)C[C@@H]1O [seocalcitol] | 85.2% | -5.75% |
| Cn1cnc([N+](=O)[O-])c1Sc1nc(N)nc2[nH]cnc12 [tiamiprine] | 82.5% | 14.4% |

| Structure (SMILES) | mCherry [1] | percent effect [2] |
| --- | --- | --- |
| CCCCCCOc1nsnc1C1=CCCN(C)C1 [xanomeline] | 102% | -4.19% |
| CC(C)n1c(/C=C/[C@@H](O)C[C@@H](O)CC(=O)O)c(-c2ccc(F)cc2)c2ccccc21 | 120% | -5.61% |
| CS(=O)(=O)Nc1cc2occ(NC=O)c(=O)c2cc1Oc1ccccc1 [iguratimod] | 92.9% | -2.2% |
| Cn1cnc([N+](=O)[O-])c1Sc1ncnc2[nH]cnc12 [azathioprine] | 72.1% | -9.82% |
| CN[C@@H]1[C@H](O)[C@H](NC)[C@H]2O[C@@]3(O)C(=O)C[C@@H](C)O[C@H]3O[C@@H]2[C@H]1O | 113% | -9.79% |
| CC(C)=CCNc1ncnc2c1ncn2[C@@H]1O[C@H](CO)[C@@H](O)[C@H]1O [riboprine] | 78.5% | -4.05% |
| Cc1ncc([N+](=O)[O-])n1CC(O)CCl (configuration not stated) [ornidazole] | 85.9% | -5.02% |
| CCC1Nc2cc(Cl)c(S(N)(=O)=O)cc2S(=O)(=O)N1 (configuration not stated) [ethiazide] | 67.7% | 3.86% |
| CCCc1c2c(c(O)c3c(=O)cc(C(=O)O)oc13)CCCC2 [proxicromil] | 98.8% | -1.29% |
| O=C1OCCN1/N=C/c1ccc([N+](=O)[O-])o1 [furazolidone] | 94.7% | -4.96% |
| OCCN1C[C@H](O)[C@@H](O)[C@H](O)[C@H]1CO [miglitol] | 93.5% | -2.37% |
| COc1ccccc1N1CCN(CC(O)COc2cccc3ccccc23)CC1 (configuration not stated) [naftopidil] | 92% and 77.8% | -1.16% and 3.1% |
| COC(=O)[C@H]1[C@H]2C[C@@H]3c4[nH]c5cc(OC)ccc5c4CCN3C[C@H]2C[C@@H](OC(=O)c2cc(OC)c(OC)c(OC)c2)[C@@H]1OC | 104% | -19% |
| CCOc1nc2cccc(C(=O)O)c2n1Cc1ccc(-c2ccccc2-c2nnn[nH]2)cc1 [candesartan] | 104% | -2.69% |
| CN1CCC(=C2c3ccccc3CCc3sccc32)CC1 [pizotifen] | 107% | -0.45% |
| CCCCc1ccc(C(N)=O)nc1 [bupicomide] | 117% | 3.19% |
| NC(=O)N1c2ccccc2C=Cc2ccccc21 [carbamazepine] | 122% and 144% | -4.7% and 2.72% |
| CCCc1nc(C)c2c(=O)nc(-c3cc(S(=O)(=O)N4CCN(CC)CC4)ccc3OCC)[nH]n12 [vardenafil] | 93.7% | -0.752% |
| CC[C@H]1OC(=O)[C@H](C)C(=O)[C@H](C)[C@@H](O[C@@H]2O[C@H](C)C[C@H](N(C)C)[C@H]2O)[C@](C)(OC)C[C@@H](C)C(=O)[C@H](C)[C@H]2N(CCCCn3cnc(-c4cccnc4)c3)C(=O)O[C@]12C [Ketek] | 115% | -16.3% |
| CCCCCCCC/C=C\CCCCCCCC(=O)NCc1ccc(O)c(OC)c1 [olvanil] | 86.2% | -4.69% |
| CCCc1ncc(C[n+]2ccccc2C)c(N)n1 [amprolium] | 111% | 6.2% |
| O=c1c(I)c[nH]cc1I [iopydone] | 107% | -3.48% |
| Nc1ccc(S(=O)(=O)c2ccc(N)cc2)cc1 [dapsone] | 97.1% | -3.53% |
